Source: PubChem BioAssay AID1159584 (Peter MacCallum Cancer Centre, 2016)
Assay: 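Genes whose loss is lethal only together with E-cadherin loss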 (primary screen). Cells: human MCF10A breast epithelial cells, parental and CDH1-null. Reagent: siRNA against human genes. Measured: 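ATP luminescence (CellTiter-Glo) viability per line relative to mean mock wells over all plates, and the ratio of CDH1-null to parental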. Scale: CDH1-null / parental viability ratio: higher = CDH1-null cells survive relatively better than parental.
This is one part, drawn at random, of about 18,000 reagents tested. Not all columns of the deposit are shown. Reagent sequences are not shown. Not stated in the record: the amount of reagent, the time to read-out.

TREML1 (GeneID 340205) [SID134322318] showed CDH1-null / parental viability ratio 1.35.
BTLA (GeneID 151888) [SID152149394] gave CDH1-null / parental viability ratio 0.82.
Depletion of OR2D3 (GeneID 120775) [SID152146928] gave: CDH1-null / parental viability ratio 1.
Knock-down of SLC35C1 (GeneID 55343) [SID134315186] gave: CDH1-null / parental viability ratio 1.02.
After knock-down of SERPINE2 (GeneID 5270) [SID134316996], the record shows CDH1-null / parental viability ratio 0.94.
NPRL3 (GeneID 8131) [SID135623902] showed CDH1-null / parental viability ratio 1.14.
With knock-down of VPS13C (GeneID 54832) [SID135624018] the results were CDH1-null / parental viability ratio 1.04.
B3GNT4 (GeneID 79369) [SID134317666] showed CDH1-null / parental viability ratio 0.93.
UBQLN4 (GeneID 56893) [SID134324783] scored CDH1-null / parental viability ratio 1.27.
With knock-down of PCDHGB6 (GeneID 56100) [SID134317519] the results were CDH1-null / parental viability ratio 1.15.
Knock-down of ABHD11 (GeneID 83451) [SID152152235] came out at: CDH1-null / parental viability ratio 1.04.
Knock-down of TOM1L2 (GeneID 146691) [SID135623598] came out at: CDH1-null / parental viability ratio 1.08.
Silencing of CPVL (GeneID 54504) [SID135621080] gave: CDH1-null / parental viability ratio 1.14.
FCHSD2 (GeneID 9873) [SID134324841] showed CDH1-null / parental viability ratio 0.81.
After knock-down of NLRP11 (GeneID 204801) [SID152148380] the results were CDH1-null / parental viability ratio 1.17.
LEFTY2 (GeneID 7044) [SID135623339] showed CDH1-null / parental viability ratio 1.13.
After knock-down of RAP1B (GeneID 5908) [SID152147112], the screen gave CDH1-null / parental viability ratio 0.94.
After knock-down of DAPK3 (GeneID 1613) [SID56478935] the results were CDH1-null / parental viability ratio 1.03.
Silencing of SLC12A2 (GeneID 6558) [SID134312431] came out at: CDH1-null / parental viability ratio 0.85.
PADI6 (GeneID 353238) [SID152151190] showed CDH1-null / parental viability ratio 0.96.
Depletion of DDHD1 (GeneID 80821) [SID135624262] resulted in: CDH1-null / parental viability ratio 0.94.
After knock-down of DDX39B (GeneID 7919) [SID134310085], the screen gave CDH1-null / parental viability ratio 0.68.
Knock-down of S100A16 (GeneID 140576) [SID134319276] gave: CDH1-null / parental viability ratio 0.76.
After knock-down of LASP1 (GeneID 3927) [SID134315019], the record shows CDH1-null / parental viability ratio 1.21.
After knock-down of NRXN2 (GeneID 9379) [SID134317155], the screen gave CDH1-null / parental viability ratio 1.04.
After knock-down of THAP6 (GeneID 152815) [SID135624210] the results were CDH1-null / parental viability ratio 0.91.
Against CBFB (GeneID 865) [SID134315929], the entry reads CDH1-null / parental viability ratio 1.06.
With knock-down of C19orf47 (GeneID 126526) [SID134322406], the record shows CDH1-null / parental viability ratio 0.73.
For ADAD1 (GeneID 132612) [SID152147174], the entry reads CDH1-null / parental viability ratio 0.89.
Depletion of PLEKHG4 (GeneID 25894) [SID152148236] came out at: CDH1-null / parental viability ratio 1.52.
CDCA7 (GeneID 83879) [SID152149106] scored CDH1-null / parental viability ratio 1.05.
Silencing of NISCH (GeneID 11188) [SID152156098] resulted in: CDH1-null / parental viability ratio 0.92.
After knock-down of CORO1B (GeneID 57175) [SID152148936], the record shows CDH1-null / parental viability ratio 0.81.
BCHE (GeneID 590) [SID152156466] showed CDH1-null / parental viability ratio 0.93.
After knock-down of EDA (GeneID 1896) [SID135620716], the record shows CDH1-null / parental viability ratio 1.04.

Copied from the listing for reference:
ABHD11 (GeneID 83451) [SID152152235]: CDH1-null / parental viability ratio = 1.04
TOM1L2 (GeneID 146691) [SID135623598]: CDH1-null / parental viability ratio = 1.08
CPVL (GeneID 54504) [SID135621080]: CDH1-null / parental viability ratio = 1.14
FCHSD2 (GeneID 9873) [SID134324841]: CDH1-null / parental viability ratio = 0.81
